From patent US6602854B1, “Branched multimeric Apo A-I agonist compounds” (priority 1997, dated 2003)

Tested on: isolated human HDL
Assay: Formation of pre-β like particles: displacement of human ApoA-I from isolated human HDL
Format: binding
Method: Human HDL was isolated by KBr density ultra centrifugation at density d=1.21 g/ml to obtain top fraction followed by Superose 6 gel filtration chromatography to separate HDL from other lipoproteins. Isolated HDL was adjusted to a final concentration of 1.0 mg/ml with physiological saline based on protein content determined by Bradford protein assay. An aliquot of 300 μl was removed from the isolated HDL preparation and incubated with 100 μl ^14C-labeled peptide 4 (0.2-1.0 μg/μl) for two hours at 37° C. Five separate incubations were analyzed including a blank containing 100 μl physiological saline and four dilutions of ^14C-labeled peptide 4: (i) 0.20 μg/μl peptide:HDL ratio=1:15; (ii) 0.30 μg/μl peptide:HDL ratio=1:10; (iii) […] peptide:HDL ratio=1:5; and (iv) 1.00 μg/μl peptide:HDL ratio=1:3. Following the two hour incubation, a 200 μl aliquot of the sample (total volume=400 μl) was loaded onto a Superose 6 gel filtration column for lipoprotein separation and analysis, and 100 μl was used to determine total radioactivity loaded. The conditions for all FPLC chromatographies were as described in Section 9.4, infra.

How did the “14C Peak #1” value (P:LP = 1:3) turn out when PVLDLFRELLNELLEALKQKLK [peptide 4] was run?
The value was 43,495 cpm.

What about the “14C Peak #3” value (P:LP = 1:3) of the same sequence?
The value was 7,832 cpm.

What about the 14C column (P:LP = 1:3) of the same sequence?
Its 14C column is 51,321 cpm.

And the “AUC Peak #1” value (P:LP = 1:3)?
Its value is 7.93.

What about the “AUC Peak #2” value (P:LP = 1:3) of the same sequence?
Its value is 1.97.

And the “EV Peak #1” value (P:LP = 1:3)?
Its value is 30.6 mL.

And the “EV Peak #2” value (P:LP = 1:3)?
The value was 34.3 mL.

And the “14C Peak #1” value (P:LP = 1:5)?
The value was 20,768 cpm.

And the “14C Peak #3” value (P:LP = 1:5)?
The value was 5,281 cpm.

And the 14C column (P:LP = 1:5)?
Its 14C column is 26,049 cpm.

What about the “AUC Peak #1” value (P:LP = 1:5) of the same sequence?
The value was 8.19.

And the “AUC Peak #2” value (P:LP = 1:5)?
The value was 1.53.

And the “EV Peak #1” value (P:LP = 1:5)?
Its value is 30.8 mL.

What about the “EV Peak #2” value (P:LP = 1:5) of the same sequence?
Its value is 34.3 mL.

What about the “AUC Peak #1” value (P:LP = 1:10) of the same sequence?
Its value is 8.42.

What about the “AUC Peak #2” value (P:LP = 1:10) of the same sequence?
The value was 0.67.

What about the “EV Peak #1” value (P:LP = 1:10) of the same sequence?
Its value is 30.7 mL.

What about the “EV Peak #2” value (P:LP = 1:10) of the same sequence?
The value was 33.0 mL.

What about the “14C Peak #1” value (P:LP = 1:15) of the same sequence?
Its value is 7,920 cpm.

What about the “14C Peak #3” value (P:LP = 1:15) of the same sequence?
Its value is 1,622 cpm.

What about the 14C column (P:LP = 1:15) of the same sequence?
Its 14C column is 9,542 cpm.

And the “AUC Peak #1 1a” value (P:LP = 1:15)?
The value was 4.09.

And the “AUC Peak #1 1b” value (P:LP = 1:15)?
The value was 6.26.

And the “EV Peak #1 1a” value (P:LP = 1:15)?
Its value is 29.4 mL.

What about the “EV Peak #1 1b” value (P:LP = 1:15) of the same sequence?
Its value is 30.9 mL.
